# Results from paper doi:10.1101/2023.11.02.565342.
# Results are given in words; binding and its absence hold for the method and conditions named.
# T1: TOPOVIBLΔC25 K281E K282E (Mus musculus, UniProt J3QMY9 1-554, K281E;K282E)
# T1 sequence: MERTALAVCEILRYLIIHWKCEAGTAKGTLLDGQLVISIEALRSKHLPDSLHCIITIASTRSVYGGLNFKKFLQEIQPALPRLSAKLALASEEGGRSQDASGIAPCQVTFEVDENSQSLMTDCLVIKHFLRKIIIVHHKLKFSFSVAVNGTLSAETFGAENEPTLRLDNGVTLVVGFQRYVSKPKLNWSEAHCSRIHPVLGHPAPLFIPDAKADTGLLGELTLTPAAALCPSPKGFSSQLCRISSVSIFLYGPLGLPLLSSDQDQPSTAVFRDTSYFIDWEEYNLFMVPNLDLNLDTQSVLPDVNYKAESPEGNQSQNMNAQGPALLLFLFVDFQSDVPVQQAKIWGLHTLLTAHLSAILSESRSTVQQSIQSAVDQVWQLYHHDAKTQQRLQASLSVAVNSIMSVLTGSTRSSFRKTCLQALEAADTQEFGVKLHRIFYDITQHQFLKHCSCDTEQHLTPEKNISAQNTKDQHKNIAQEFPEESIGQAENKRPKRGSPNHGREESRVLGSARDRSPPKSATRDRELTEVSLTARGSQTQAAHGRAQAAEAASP
# How the values were obtained:
# TOPOVIBLΔC25 (mouse) [1] = target: TOPOVIBLΔC25 (mouse) (UniProt J3QMY9); experiment: native MS
# TOPOVIBLΔC25 (mouse) [2] = target: TOPOVIBLΔC25 (mouse) (UniProt J3QMY9); experiment: SEC-SAXS
# TOPOVIBLΔC25 (mouse) [3] = target: TOPOVIBLΔC25 (mouse) (UniProt J3QMY9); experiment: SEC-MALS
# TOPOVIBLΔC25 (mouse) [4] = target: TOPOVIBLΔC25 (mouse) (UniProt J3QMY9); experiment: SEC
# TOPOVIBLΔC25 K281E K282E = target: T1, TOPOVIBLΔC25 K281E K282E; experiment: SEC
Binder,binding (TOPOVIBLΔC25 (mouse) [1]),binding (TOPOVIBLΔC25 (mouse) [2]),binding (TOPOVIBLΔC25 (mouse) [3]),binding (TOPOVIBLΔC25 (mouse) [4]),binding (TOPOVIBLΔC25 K281E K282E)
"TOPOVIBLΔC25 (domain or fragment, UniProt J3QMY9 1-554) MERTALAVCEILRYLIIHWKCEAGTAKGTLLDGQLVISIEALRSKHLPDSLHCIITIASTRSVYGGLNFKKFLQEIQPALPRLSAKLALASEEGGRSQDASGIAPCQVTFEVDENSQSLMTDCLVIKHFLRKIIIVHHKLKFSFSVAVNGTLSAETFGAENEPTLRLDNGVTLVVGFQRYVSKPKLNWSEAHCSRIHPVLGHPAPLFIPDAKADTGLLGELTLTPAAALCPSPKGFSSQLCRISSVSIFLYGPLGLPLLSSDQDQPSTAVFRDTSYFIDWKKYNLFMVPNLDLNLDTQSVLPDVNYKAESPEGNQSQNMNAQGPALLLFLFVDFQSDVPVQQAKIWGLHTLLTAHLSAILSESRSTVQQSIQSAVDQVWQLYHHDAKTQQRLQASLSVAVNSIMSVLTGSTRSSFRKTCLQALEAADTQEFGVKLHRIFYDITQHQFLKHCSCDTEQHLTPEKNISAQNTKDQHKNIAQEFPEESIGQAENKRPKRGSPNHGREESRVLGSARDRSPPKSATRDRELTEVSLTARGSQTQAAHGRAQAAEAASP",no binding,no binding (tested: 12 mg/mL injected),no binding,no binding (condition: after 50 mM DTT),
"TOPOVIBLΔC25^K281EK282E (domain or fragment, UniProt J3QMY9 1-554) MERTALAVCEILRYLIIHWKCEAGTAKGTLLDGQLVISIEALRSKHLPDSLHCIITIASTRSVYGGLNFKKFLQEIQPALPRLSAKLALASEEGGRSQDASGIAPCQVTFEVDENSQSLMTDCLVIKHFLRKIIIVHHKLKFSFSVAVNGTLSAETFGAENEPTLRLDNGVTLVVGFQRYVSKPKLNWSEAHCSRIHPVLGHPAPLFIPDAKADTGLLGELTLTPAAALCPSPKGFSSQLCRISSVSIFLYGPLGLPLLSSDQDQPSTAVFRDTSYFIDWEEYNLFMVPNLDLNLDTQSVLPDVNYKAESPEGNQSQNMNAQGPALLLFLFVDFQSDVPVQQAKIWGLHTLLTAHLSAILSESRSTVQQSIQSAVDQVWQLYHHDAKTQQRLQASLSVAVNSIMSVLTGSTRSSFRKTCLQALEAADTQEFGVKLHRIFYDITQHQFLKHCSCDTEQHLTPEKNISAQNTKDQHKNIAQEFPEESIGQAENKRPKRGSPNHGREESRVLGSARDRSPPKSATRDRELTEVSLTARGSQTQAAHGRAQAAEAASP",,,,,no binding
